Some of the results follow. Further columns of the screen follow, without active or inactive calls. Most of these compounds were active or inconclusive in the main read-out, so they are no random draw. Potencies come from curve fits of mixed quality, noted in brackets.
Test: qHTS Assay to Find Inhibitors of Chronic Active B-Cell Receptor Signaling
Conditions: ABC-DLBCL IkBa-CBG/CBR reporter, luminescence ratio (green luciferase fused to IkBa over red control in TMD8 lymphoma cells), 4 h
Outline: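 TMD8 human ABC-DLBCL cells with doxycycline-inducible IκBα–green luciferase fusion and unfused red luciferase, in 0.5% FBS medium; compounds up to 46 uM, 4 h at 37C. Green/red luminescence ratio, filter-overlap corrected, fitted to concentration-response curves.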

[1] = measured here: CBR red luminescence, cell number
[2] = measured here: IkBa-CBG green luminescence

SMILES | AC50 [1] | AC50 [2]
COc1ccc(C)cc1NC(=O)c1ccc(NS(=O)(=O)c2cccc3cccnc23)cc1 | 11.2 µM [rising, partial curve] | –
Clc1ccc(-c2nnc(C34CC5CC(CC(C5)C3)C4)o2)cn1 | 1.64 µM [falling, partial curve] | –
O=C(CSc1nccc2ccccc12)N1CCN(c2ccccn2)CC1 | 29.1 µM [falling, single point] | –
CCCNC(=O)C(=O)Nc1ccc(N(C)C)cc1 | 10.3 µM [falling, partial curve, poor fit] | –
COc1ccc(C(=O)Nc2cc(Cl)ccc2C(=O)O)cc1 | 11.2 µM [falling, partial curve] | –
CN(C(=O)CCl)C1CCCc2ccccc21 (stereo unspecified) | 11.2 µM [falling, partial curve, poor fit] | –
Cc1ccccc1NC(=O)Nc1ccccc1Br | 1.12 µM [falling, full curve] | –
CCOC(=O)C(C)(C)N(Cc1ccc(C)cc1)S(=O)(=O)c1ccc(Cl)c([N+](=O)[O-])c1 | 20.6 µM [falling, single point] | –
O=C(Cc1ccc(Br)cc1)N1CCN(c2ccccc2)CC1 | 29.1 µM [rising, single point] | –
c1ccc(-c2csc(N3CCc4ccccc4C3)n2)cc1 | 0.0891 µM [rising, full curve, poor fit] | –
Oc1ccc(N=Nc2c(O)ccc3ccccc23)cc1 | 29.1 µM [falling, single point] | –
O=[N+]([O-])c1ccc(-c2ccc(/C=N/c3c(-c4ccco4)nc4ccccn34)o2)cc1 | 14.1 µM [rising, partial curve, poor fit] | –
CCOc1ccc(OCC)c(NC(=O)C2CCN(S(=O)(=O)c3cnc[nH]3)CC2)c1 | 3.66 µM [rising, single point] | –
CCN(CC)C(=O)CSc1nc(-c2ccccc2)cc(=O)[nH]1 | 12.6 µM [falling, single point] | –
CCC(C)(C)n1nnnc1C(c1cc2cc(C)ccc2[nH]c1=O)N1CCCc2ccccc21 (stereo unspecified) | 5.17 µM [falling, full curve] | –
O=C(COC(=O)c1ccccc1O)Nc1cccnc1Cl | 4.11 µM [falling, full curve] | –
CCOc1ccccc1NC(=O)C(Sc1nnc2ccccn12)c1ccccc1 (stereo unspecified) | 9.2 µM [falling, partial curve, poor fit] | –
O=C(CSc1ccccn1)Nc1nc2ccccc2s1 | 16.4 µM [falling, single point] | –
CCN(CC(=O)Nc1ccc(OC)cc1)C(=O)CN1C(=O)NC(C)(c2ccc3ccccc3c2)C1=O (stereo unspecified) | 10 µM [falling, partial curve, poor fit] | –
CCCCC(=O)Nc1ccc(C(=O)Nc2ccc(S(=O)(=O)Nc3ccc(C)cc3)cc2)cc1 | 29.1 µM [rising, single point] | –
CN1C(=O)C(Cl)(Cl)C(=O)c2ccccc21 | 23.1 µM [falling, partial curve] | –
CCOC(=O)Nc1ccc2c(c1)N(C(=O)CCN(C)C)c1ccccc1S2 | 20 µM [falling, partial curve] | –

SMILES | AC50 [1] | AC50 [2]
CCCSc1nc(C)c(C(C)=O)cc1C#N | – | 2.59 µM [falling, full curve, poor fit]
O=C(NCc1ccco1)c1nc2c(nnn2Cc2ccccc2Cl)c(=O)[nH]1 | 5.8 µM [falling, full curve, poor fit] | 23.1 µM [rising, single point]
Clc1ccc(CCNc2nc3ccccc3s2)cc1 | 2.82 µM [rising, partial curve, poor fit] | –
Cn1c(=O)c2c(ncn2CCOc2cccc(Br)c2)n(C)c1=O | 25.1 µM [falling, single point] | –
Clc1ccc(CNCc2cccs2)cc1Cl | 13 µM [rising, partial curve, poor fit] | –
O=C(NCc1ccccn1)c1ccc(NS(=O)(=O)c2cccc(Cl)c2)cc1 | 11.2 µM [falling, partial curve, poor fit] | –
CCC(=O)c1ccc(OCC(=O)NCC2COc3ccccc3O2)cc1 (stereo unspecified) | 20.6 µM [rising, single point] | –
O=C(CSC1=Nc2ccccc2C2=NC(c3ccccc3)C(=O)N12)NC1CCCCC1 (stereo unspecified) | 6.51 µM [falling, single point] | –
COc1cccc(NC(=O)N2CCN3CCCCC3C2)c1 (stereo unspecified) | 8.91 µM [falling, partial curve] | –
C=CCSc1nc2ccccc2n1Cc1nnc(-c2cccs2)o1 | 35.5 µM [falling, partial curve, poor fit] | –
CCC1CCCCN1C(=O)CSc1nnc(CNC(=O)COc2ccc(Cl)cc2)o1 (stereo unspecified) | 29.1 µM [rising, single point] | –
Cc1ccc2oc(=O)c(-c3ccc(O)cc3)c(C)c2c1 | 0.103 µM [falling, full curve, poor fit] | –
CC(C)CN1C(=O)C(=O)N(CC(=O)N(C)CC(=O)Nc2ccc(Cl)c(C(F)(F)F)c2)C1=O | 4.11 µM [rising, full curve, poor fit] | –
C=CCn1nc([N+](=O)[O-])nc1Sc1cccc2cccnc12 | 29.1 µM [falling, single point] | –
CCCCc1nc(NCCNC(=O)c2ccccc2)c(C#N)c2c1CSC(C)(C)C2 | 20.6 µM [falling, single point] | –
CC(C)(C)n1nc2c(c1NC(=O)c1cc3ccccc3o1)CS(=O)(=O)C2 | 6.31 µM [rising, full curve] | –
COCc1cc(C)n(CC(=O)N/N=C/c2ccc(-c3ccc(Cl)c(C(=O)O)c3)o2)c(=O)c1C#N | 23.1 µM [falling, single point] | –
COC(=O)c1cc(O)cc(OC)c1C(=O)c1c(O)cc(C)cc1O | 12.6 µM [falling, partial curve, poor fit] | –
Cc1ccc(N(C)S(=O)(=O)c2cccc(C(=O)Nc3nc4ccccc4[nH]3)c2)cc1 | 18.4 µM [falling, single point] | –
O=C1NC2(CCCCC2)Oc2ccccc21 | 23.1 µM [rising, single point] | –
CCOc1ncccc1C(=O)OCC(=O)Nc1ccc(C(N)=O)cc1 | 28.2 µM [rising, single point] | –
COc1ccc(-c2c[n+]3c(n2-c2ccc(C)cc2)CCCCC3)cc1 | – | 35.5 µM [rising, partial curve, poor fit]

SMILES | AC50 [1] | AC50 [2]
Cc1nc2ccc(NC(=O)c3ccco3)cc2nc1C | 11.2 µM [falling, single point] | –
Cc1ccc(NC(=O)C(=O)NNC(=O)c2ccccc2C)cc1Cl | 11.2 µM [falling, partial curve, poor fit] | –
c1nc(NC2CCCCC2)c2[nH]cnc2n1 | 16.4 µM [falling, partial curve] | –
CCCN(CC#CC(O)(c1ccccc1)c1cccnc1)CCC (stereo unspecified) | 35.5 µM [falling, partial curve, poor fit] | –
CCN(CC)C1CCN(C(=O)c2ccc(OC3CCN(CCc4ccccc4)CC3)cc2)C1 (stereo unspecified) | 35.5 µM [falling, single point] | –
O=c1[nH]c(-c2ccco2)nc2sc3c(c12)CCCC3 | 1.64 µM [rising, full curve, poor fit] | –
COc1ccc(OC)c(C2=NO[C@@H]3C(=O)N(c4cc(Cl)ccc4OC)C(=O)[C@H]23)c1 | 18.4 µM [falling, single point] | –
O=C(CCN1C(=O)CSc2ccccc21)Nc1ccc(OC(F)(F)F)cc1 | 2.06 µM [rising, full curve, poor fit] | –
CCOC(=O)c1c(CSCc2ccccc2)oc2ccc(O)c(CN(C)C)c12 | 4.47 µM [falling, full curve] | –
O=C(NC1C2CC3CC(C2)CC1C3)c1ccc(N2CCNCC2)c([N+](=O)[O-])c1 (stereo unspecified) | 6.31 µM [rising, single point] | –
COc1cccc(C(=O)OCC(=O)c2c(N)n(C)c(=O)n(C)c2=O)c1 | 25.9 µM [falling, partial curve, poor fit] | –
Cc1cccc(NC(=O)NNC(=O)c2nn(C)cc2Br)c1 | 23.1 µM [falling, partial curve, poor fit] | –
CCOC(=O)C1CCN(c2nc3ccccc3nc2C(C#N)C(=O)NCCc2ccccc2)CC1 (stereo unspecified) | 35.5 µM [falling, single point] | –
O=C1C2ON(c3ccc(Cl)cc3)C(c3ccco3)C2C(=O)N1c1ccccc1 (stereo unspecified) | 32.6 µM [falling, partial curve, poor fit] | –
CC(C)NC(=O)Nc1cccc2c1O[C@H](CN(C)C(=O)NC1CCCCC1)[C@@H](C)CN([C@H](C)CO)C2=O | 16.4 µM [rising, single point] | –
CCCc1cc(=O)n2c(nc3ccccc32)[nH]1 | 3.66 µM [falling, partial curve] | –
COc1ccc(OC)c(NC(=O)CSc2ccc(-c3ccco3)nn2)c1 | 0.631 µM [falling, partial curve, poor fit] | –
O=C(Nc1ncn[nH]1)c1cccc(F)c1 | 0.517 µM [rising, full curve, poor fit] | –
CCn1c(SCC(=O)N2CCCCCC2)nc2ccccc2c1=O | 35.5 µM [falling, single point] | –
CC(/C=C1\N=C(SCc2ccccc2)SC1=O)=C\c1ccccc1 | 20.6 µM [rising, partial curve] | –
CC(=O)N1CCN(c2ccccc2NC(=O)COc2ccc(Br)cc2)CC1 | 11.2 µM [falling, partial curve, poor fit] | –

Source: PubChem BioAssay AID493014 (National Center for Advancing Translational Sciences (NCATS), 2011)
